Values from PubChem BioAssay AID743448 (Peter MacCallum Cancer Centre, 2014)

Aim: 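Test whether knock-downs sensitising to vorinostat hold across several colon lines but not etoposide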 (follow-up of hits)
Cells: four human colon cancer cell lines: HCT116-VR (vorinostat-resistant HCT116 derivative), SW480, SW620 and LIM1215
Knock-down reagent: siRNA pool against human genes, 40 nM siRNA pool
Duration: drug added two days after transfection, read one day later
Treatment: vorinostat 2.5 µM on one half of each plate, etoposide 5 µM on the other half
Cell line and drug panel: SW620 cells with vorinostat
Read-out: 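Caspase luminescence and viability fluorescence, each expressed relative to mock transfection and also as robust z-scores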
Reading the numbers: caspase ratio to mock: higher = more caspase activity than mock; viability ratio to mock: higher = more live cells than mock; caspase robust z-score: higher = more caspase activity, more apoptosis; viability robust z-score: higher = more live cells
Rule for the call: 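Hit means caspase ratio to mock at least 1.6, or viability ratio to mock at most 0.75; wells with strong death in the absence of drug get no call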
Meaning of the calls: active = caspase or viability hit in this panel; inactive = no change, or unhealthy well
This is an unselected part of the 106 reagents, under one of the conditions tested. 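Calls are per line and drug panel including etoposide, not vorinostat-specific; gene picks needed hits in two or more extra lines with vorinostat versus etoposide.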

target	caspase ratio to mock	viability ratio to mock	caspase robust z-score	viability robust z-score	Outcome
LBHD1 (GeneID 79081)	0.94	0.92	-1.17	0.08	inactive
MTF2 (GeneID 22823)	1.29	0.92	-0.18	0.03	inactive
CAPN12 (GeneID 147968)	0.86	0.84	-1.41	-0.57	inactive
THAP1 (GeneID 55145)	1.39	0.98	0.08	0.45	inactive
TOX4 (GeneID 9878)	1.21	1.09	-0.4	1.24	inactive
C22orf15 (GeneID 150248)	1.86	0.98	1.4	0.46	active
PRRT3 (GeneID 285368)	1.21	0.98	-0.41	0.53	inactive
VAX1 (GeneID 11023)	1.3	0.84	-0.14	-0.57	inactive
SLU7 (GeneID 10569)	1.14	0.63	-0.58	-2.01	active
EIF4A1 (GeneID 1973)	0.72	0.9	-1.75	-0.14	inactive
MED28 (GeneID 80306)	1.47	0.92	0.31	0.02	inactive
PNN (GeneID 5411)	2.18	0.82	2.32	-0.61	active
CNOT1 (GeneID 23019)	1.82	0.87	1.25	-0.29	active
PCP4 (GeneID 5121)	1.4	0.86	0.11	-0.3	inactive
NUP133 (GeneID 55746)	1.1	0.6	-0.74	-2.2	active
ZNF441 (GeneID 126068)	1.35	0.88	0.01	-0.2	inactive
RGS18 (GeneID 64407)	1.62	1.05	0.75	0.99	active
TFAP2D (GeneID 83741)	1.33	1.11	-0.06	1.43	inactive
NUP205 (GeneID 23165)	1.16	0.67	-0.52	-1.78	active
TGM5 (GeneID 9333)	1.03	0.91	-0.92	-0.03	inactive
NPEPPS (GeneID 9520)	0.82	0.57	-1.5	-2.41	active

The list goes on (5 carried over from the part before).
target	caspase ratio to mock	viability ratio to mock	caspase robust z-score	viability robust z-score	Outcome
RGS18 (GeneID 64407)	1.62	1.05	0.75	0.99	active
TFAP2D (GeneID 83741)	1.33	1.11	-0.06	1.43	inactive
NUP205 (GeneID 23165)	1.16	0.67	-0.52	-1.78	active
TGM5 (GeneID 9333)	1.03	0.91	-0.92	-0.03	inactive
NPEPPS (GeneID 9520)	0.82	0.57	-1.5	-2.41	active
HSPA6 (GeneID 3310)	1.4	0.98	0.14	0.55	inactive
NUP62 (GeneID 23636)	1.06	0.76	-0.85	-1.12	inactive
PSMD13 (GeneID 5719)	1.56	0.82	0.56	-0.6	inactive
VPS4A (GeneID 27183)	1.5	0.54	0.4	-2.6	active
AP5S1 (GeneID 55317)	1.32	0.88	-0.12	-0.22	inactive
TBC1D20 (GeneID 128637)	1.62	0.73	0.72	-1.3	active
EIF2S1 (GeneID 1965)	0.94	0.86	-1.18	-0.34	inactive
GLI1 (GeneID 2735)	1.3	0.97	-0.16	0.42	inactive
SIN3A (GeneID 25942)	1.36	1	-0.01	0.58	inactive
POLR2K (GeneID 5440)	1.31	0.91	-0.14	-0.02	inactive
OR2W5 (GeneID 441932)	1.05	0.99	-0.86	0.56	inactive
FANCA (GeneID 2175)	1.68	0.94	0.94	0.23	active
PUF60 (GeneID 22827)	1.31	0.83	-0.1	-0.6	inactive
IRX2-DT (GeneID 153571)	1.73	1.08	1.06	1.16	active
SH3GLB2 (GeneID 56904)	1.25	0.95	-0.32	0.3	inactive
